Data taken from the supplement of paper PMC12823440, “Inhibitors supercharge kinase turnover through native proteolytic circuits” (Nature, 2025).
Structures can show the parent of a compound that is named as a salt. The list shows a part of the results. The calls rarely recur for the same compound in another form.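 Kinases were expressed as nanoluciferase fusions in K562 cells and luminescence was read every 4 h between 2 and 18 h as percent of control, DMSO set to 100% and a positive control to 0%. A time point counts as decreased when the signal drops significantly (2 sigma). The hit call is the authors' own, does not follow from the count of time points alone, and its rule is not shown.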

The chains behind the UniProt entries cited, without tags or fusion partners. Where a name states a change or a piece, a line headed by the entry shows the natural chain unless it says otherwise.
UniProt P23458: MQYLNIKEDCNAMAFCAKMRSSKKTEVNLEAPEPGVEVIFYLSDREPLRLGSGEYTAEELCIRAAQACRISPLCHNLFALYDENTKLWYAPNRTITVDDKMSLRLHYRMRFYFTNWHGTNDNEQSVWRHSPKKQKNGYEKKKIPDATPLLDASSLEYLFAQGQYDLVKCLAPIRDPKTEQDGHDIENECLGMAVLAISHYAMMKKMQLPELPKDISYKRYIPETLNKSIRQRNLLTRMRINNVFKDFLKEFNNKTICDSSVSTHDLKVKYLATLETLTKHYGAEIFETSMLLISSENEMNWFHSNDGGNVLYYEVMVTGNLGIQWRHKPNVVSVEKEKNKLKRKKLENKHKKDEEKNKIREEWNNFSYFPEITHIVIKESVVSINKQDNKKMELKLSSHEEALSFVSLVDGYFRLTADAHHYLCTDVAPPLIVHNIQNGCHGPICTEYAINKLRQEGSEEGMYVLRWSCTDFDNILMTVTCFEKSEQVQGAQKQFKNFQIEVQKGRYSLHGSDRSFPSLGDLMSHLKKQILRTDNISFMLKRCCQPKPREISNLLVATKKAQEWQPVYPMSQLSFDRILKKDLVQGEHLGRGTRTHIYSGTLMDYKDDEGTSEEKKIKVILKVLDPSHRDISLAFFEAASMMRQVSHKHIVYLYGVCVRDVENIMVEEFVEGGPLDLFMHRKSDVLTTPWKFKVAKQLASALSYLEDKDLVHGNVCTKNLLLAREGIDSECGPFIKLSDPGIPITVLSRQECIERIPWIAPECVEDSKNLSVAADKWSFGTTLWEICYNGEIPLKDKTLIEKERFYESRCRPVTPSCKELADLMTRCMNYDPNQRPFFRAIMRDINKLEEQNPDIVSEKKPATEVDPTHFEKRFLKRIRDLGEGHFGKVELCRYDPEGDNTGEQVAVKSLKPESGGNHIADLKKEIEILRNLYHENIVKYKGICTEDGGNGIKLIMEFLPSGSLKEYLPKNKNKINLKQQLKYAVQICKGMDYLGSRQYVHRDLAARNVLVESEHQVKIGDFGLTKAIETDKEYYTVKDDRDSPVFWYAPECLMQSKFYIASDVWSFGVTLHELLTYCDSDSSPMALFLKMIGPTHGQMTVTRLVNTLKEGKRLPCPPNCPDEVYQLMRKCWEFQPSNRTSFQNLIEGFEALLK
UniProt P06239: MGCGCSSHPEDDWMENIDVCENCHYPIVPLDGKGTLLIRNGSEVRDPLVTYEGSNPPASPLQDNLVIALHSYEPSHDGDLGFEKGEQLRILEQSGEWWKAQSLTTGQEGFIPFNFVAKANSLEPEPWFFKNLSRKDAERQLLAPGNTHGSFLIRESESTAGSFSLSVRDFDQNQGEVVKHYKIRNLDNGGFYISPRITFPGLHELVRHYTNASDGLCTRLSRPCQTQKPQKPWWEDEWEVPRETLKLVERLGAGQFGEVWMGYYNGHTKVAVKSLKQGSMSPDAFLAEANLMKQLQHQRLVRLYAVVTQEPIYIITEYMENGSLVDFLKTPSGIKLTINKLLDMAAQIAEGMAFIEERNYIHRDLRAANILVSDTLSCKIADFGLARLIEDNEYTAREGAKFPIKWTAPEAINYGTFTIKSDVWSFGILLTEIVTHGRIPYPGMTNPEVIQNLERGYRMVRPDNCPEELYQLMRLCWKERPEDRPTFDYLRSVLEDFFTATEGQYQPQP
UniProt P53667: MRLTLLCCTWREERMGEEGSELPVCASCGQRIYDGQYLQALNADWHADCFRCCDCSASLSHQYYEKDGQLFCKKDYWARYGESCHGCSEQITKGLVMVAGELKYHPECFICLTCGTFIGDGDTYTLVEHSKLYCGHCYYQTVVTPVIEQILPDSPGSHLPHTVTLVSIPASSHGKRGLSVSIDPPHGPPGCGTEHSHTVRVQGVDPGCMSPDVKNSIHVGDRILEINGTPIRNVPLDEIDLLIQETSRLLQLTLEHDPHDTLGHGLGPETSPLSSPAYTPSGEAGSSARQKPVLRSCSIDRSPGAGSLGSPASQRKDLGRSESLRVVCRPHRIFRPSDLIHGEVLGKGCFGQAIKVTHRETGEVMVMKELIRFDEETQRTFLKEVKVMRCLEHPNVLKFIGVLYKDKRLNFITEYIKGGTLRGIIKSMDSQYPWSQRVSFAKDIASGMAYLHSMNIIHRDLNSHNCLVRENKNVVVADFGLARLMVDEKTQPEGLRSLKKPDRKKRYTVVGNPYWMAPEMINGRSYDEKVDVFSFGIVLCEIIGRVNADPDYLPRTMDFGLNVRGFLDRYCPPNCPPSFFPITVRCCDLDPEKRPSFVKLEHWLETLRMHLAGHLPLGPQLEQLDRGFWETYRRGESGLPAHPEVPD
UniProt P07948: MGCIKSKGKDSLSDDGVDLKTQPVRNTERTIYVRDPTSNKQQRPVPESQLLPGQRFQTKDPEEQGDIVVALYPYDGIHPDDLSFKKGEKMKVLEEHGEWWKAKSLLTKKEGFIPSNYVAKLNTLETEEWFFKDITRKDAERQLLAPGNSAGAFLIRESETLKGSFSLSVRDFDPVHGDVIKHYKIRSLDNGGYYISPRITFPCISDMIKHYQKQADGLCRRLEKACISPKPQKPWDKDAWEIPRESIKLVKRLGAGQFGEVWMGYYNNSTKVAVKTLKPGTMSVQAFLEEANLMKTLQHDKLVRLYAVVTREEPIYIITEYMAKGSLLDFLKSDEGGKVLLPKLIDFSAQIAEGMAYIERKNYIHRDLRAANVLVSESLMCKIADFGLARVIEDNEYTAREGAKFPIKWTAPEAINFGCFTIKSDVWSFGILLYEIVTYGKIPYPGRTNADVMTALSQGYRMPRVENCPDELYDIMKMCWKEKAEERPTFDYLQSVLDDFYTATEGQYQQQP
UniProt Q12851: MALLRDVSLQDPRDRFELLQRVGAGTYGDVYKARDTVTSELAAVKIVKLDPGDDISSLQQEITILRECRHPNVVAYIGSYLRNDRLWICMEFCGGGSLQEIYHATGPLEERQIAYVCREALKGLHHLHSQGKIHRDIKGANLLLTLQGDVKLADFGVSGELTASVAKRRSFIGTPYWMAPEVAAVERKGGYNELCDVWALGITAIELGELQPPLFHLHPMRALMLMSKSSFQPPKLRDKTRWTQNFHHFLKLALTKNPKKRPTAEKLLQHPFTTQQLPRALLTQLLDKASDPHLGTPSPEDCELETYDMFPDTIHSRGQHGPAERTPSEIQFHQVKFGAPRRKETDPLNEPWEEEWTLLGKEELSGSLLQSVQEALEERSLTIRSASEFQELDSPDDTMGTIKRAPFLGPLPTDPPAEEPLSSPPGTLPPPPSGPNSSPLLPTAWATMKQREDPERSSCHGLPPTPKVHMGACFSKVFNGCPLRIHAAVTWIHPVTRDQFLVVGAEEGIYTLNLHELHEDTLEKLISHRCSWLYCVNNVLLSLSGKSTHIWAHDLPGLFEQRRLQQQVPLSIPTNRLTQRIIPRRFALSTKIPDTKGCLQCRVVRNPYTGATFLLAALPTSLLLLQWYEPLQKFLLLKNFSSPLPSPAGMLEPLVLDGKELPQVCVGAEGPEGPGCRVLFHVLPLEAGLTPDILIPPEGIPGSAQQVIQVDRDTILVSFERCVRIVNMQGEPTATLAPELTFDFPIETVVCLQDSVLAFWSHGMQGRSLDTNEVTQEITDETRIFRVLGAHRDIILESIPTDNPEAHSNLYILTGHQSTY
UniProt P49137, whole entry, looked up: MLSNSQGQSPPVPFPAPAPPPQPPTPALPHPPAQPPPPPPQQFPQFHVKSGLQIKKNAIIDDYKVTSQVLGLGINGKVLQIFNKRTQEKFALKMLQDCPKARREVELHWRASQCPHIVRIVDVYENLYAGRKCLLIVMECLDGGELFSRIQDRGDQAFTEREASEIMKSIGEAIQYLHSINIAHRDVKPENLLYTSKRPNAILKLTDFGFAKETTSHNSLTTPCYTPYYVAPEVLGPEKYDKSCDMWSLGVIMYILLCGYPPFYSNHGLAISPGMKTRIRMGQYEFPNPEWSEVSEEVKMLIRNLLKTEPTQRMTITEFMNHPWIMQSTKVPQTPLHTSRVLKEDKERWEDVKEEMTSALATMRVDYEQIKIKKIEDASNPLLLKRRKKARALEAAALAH
UniProt Q16620, whole entry, looked up: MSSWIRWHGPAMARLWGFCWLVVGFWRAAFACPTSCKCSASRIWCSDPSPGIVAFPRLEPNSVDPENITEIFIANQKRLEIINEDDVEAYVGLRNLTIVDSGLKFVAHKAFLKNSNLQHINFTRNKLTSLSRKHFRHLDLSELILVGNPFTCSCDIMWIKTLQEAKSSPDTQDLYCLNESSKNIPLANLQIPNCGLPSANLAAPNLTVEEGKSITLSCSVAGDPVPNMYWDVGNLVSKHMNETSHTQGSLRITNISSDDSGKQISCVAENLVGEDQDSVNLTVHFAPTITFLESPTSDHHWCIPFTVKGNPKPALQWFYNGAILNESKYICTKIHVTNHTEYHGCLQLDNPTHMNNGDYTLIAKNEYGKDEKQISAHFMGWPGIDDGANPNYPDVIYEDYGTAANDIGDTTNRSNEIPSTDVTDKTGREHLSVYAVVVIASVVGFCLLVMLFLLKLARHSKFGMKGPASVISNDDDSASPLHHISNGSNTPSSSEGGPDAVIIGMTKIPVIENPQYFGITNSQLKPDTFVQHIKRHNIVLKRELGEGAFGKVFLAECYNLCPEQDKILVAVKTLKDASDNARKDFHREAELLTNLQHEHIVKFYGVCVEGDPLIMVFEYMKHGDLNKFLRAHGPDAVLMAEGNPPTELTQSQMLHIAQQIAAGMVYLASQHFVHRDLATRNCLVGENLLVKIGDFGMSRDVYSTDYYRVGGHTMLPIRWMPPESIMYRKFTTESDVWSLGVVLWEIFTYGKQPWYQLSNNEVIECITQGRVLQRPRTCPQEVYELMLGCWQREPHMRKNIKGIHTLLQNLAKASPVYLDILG
UniProt O96013: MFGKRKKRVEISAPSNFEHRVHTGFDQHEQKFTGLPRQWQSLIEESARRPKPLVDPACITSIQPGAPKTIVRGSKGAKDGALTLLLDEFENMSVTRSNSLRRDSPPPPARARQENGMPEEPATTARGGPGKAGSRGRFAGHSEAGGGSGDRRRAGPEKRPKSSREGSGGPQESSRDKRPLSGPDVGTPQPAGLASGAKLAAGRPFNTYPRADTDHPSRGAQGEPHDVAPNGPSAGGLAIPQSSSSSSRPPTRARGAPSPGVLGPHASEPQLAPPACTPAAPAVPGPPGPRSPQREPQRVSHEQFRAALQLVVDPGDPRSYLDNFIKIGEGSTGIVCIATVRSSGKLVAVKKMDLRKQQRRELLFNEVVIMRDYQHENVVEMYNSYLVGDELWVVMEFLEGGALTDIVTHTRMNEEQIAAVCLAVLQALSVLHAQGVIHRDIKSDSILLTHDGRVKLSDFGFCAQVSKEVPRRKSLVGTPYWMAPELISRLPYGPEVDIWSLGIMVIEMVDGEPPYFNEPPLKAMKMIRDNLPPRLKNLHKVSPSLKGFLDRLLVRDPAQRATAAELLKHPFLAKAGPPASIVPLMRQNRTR
UniProt P09619, whole entry: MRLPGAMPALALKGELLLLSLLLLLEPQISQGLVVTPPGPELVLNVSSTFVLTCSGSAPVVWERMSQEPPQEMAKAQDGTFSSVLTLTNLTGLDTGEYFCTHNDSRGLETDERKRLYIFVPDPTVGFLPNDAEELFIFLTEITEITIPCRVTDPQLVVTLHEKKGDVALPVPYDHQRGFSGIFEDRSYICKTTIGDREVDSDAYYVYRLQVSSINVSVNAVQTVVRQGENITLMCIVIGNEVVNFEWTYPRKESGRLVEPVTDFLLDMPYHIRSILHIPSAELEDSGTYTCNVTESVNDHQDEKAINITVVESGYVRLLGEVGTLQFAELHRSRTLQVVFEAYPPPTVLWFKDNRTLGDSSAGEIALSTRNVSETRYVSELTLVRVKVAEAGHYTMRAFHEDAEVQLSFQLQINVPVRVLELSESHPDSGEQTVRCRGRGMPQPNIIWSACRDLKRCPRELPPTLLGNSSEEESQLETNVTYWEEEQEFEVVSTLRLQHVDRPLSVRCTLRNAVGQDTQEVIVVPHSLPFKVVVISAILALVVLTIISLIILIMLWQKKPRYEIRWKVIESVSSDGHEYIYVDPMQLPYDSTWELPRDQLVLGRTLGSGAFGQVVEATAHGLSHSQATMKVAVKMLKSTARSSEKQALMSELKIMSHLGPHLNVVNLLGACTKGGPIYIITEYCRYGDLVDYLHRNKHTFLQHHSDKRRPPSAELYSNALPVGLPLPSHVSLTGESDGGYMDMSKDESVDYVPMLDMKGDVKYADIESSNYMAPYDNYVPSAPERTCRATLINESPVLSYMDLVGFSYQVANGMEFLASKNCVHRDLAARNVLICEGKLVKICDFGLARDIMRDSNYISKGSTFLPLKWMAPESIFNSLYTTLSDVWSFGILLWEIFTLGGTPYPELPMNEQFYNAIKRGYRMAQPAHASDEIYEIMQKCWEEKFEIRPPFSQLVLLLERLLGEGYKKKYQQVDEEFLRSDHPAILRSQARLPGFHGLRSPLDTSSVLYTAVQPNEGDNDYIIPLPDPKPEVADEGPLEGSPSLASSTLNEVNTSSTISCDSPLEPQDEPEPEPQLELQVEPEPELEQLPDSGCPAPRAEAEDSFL

Legend:
Test in all cases: kinase-Nluc reporter destabilization hit call (1 = scored as downregulated) (binary); higher = compound decreases kinase abundance
Conditions in all cases: K562; 2-18 h
[1] = target: IRAK3 (UniProt Q9Y616)
[2] = target: JAK1 (UniProt P23458)
[3] = target: LCK (UniProt P06239)
[4] = target: LIMK1 (UniProt P53667)
[5] = target: LIMK2 (UniProt P53671)
[6] = target: LMTK2 (UniProt Q8IWU2)
[7] = target: LYN (UniProt P07948)
[8] = target: MAP2K1 (UniProt Q02750)
[9] = target: MAP2K2 (UniProt P36507)
[10] = target: MAP4K2 (UniProt Q12851)
[11] = target: MAPK1 (UniProt P28482)
[12] = target: MAPK4 (UniProt P31152)
[13] = target: MAPKAPK2 (UniProt P49137)
[14] = target: MKNK1 (UniProt Q9BUB5)
[15] = target: NTRK2 (UniProt Q16620)
[16] = target: NTRK3 (UniProt Q16288)
[17] = target: PAK4 (UniProt O96013)
[18] = target: PBK (UniProt Q96KB5)
[19] = target: PDGFRB (UniProt P09619)
[20] = target: PDK1 (UniProt Q15118)

Measured: kinase-Nluc reporter destabilization hit call

CC(C)(C)Cn1c(N)nc2ccc(-c3[nH]c(C(C)(C)C)nc3-c3ccc(F)cc3)nc21 [Ralimetinib dimesylate] (2.5 µM)
inactive: [1] 0 | [2] 0 | [3] 0 | [4] 0 | [5] 0 | [6] 0 | [7] 0 | [8] 0 | [9] 0 | [10] 0 | [11] 0 | [12] 0 | [13] 0 | [14] 0 | [15] 0 | [16] 0 | [17] 0 | [18] 0 | [19] 0 | [20] 0

CC[C@H](C)[C@H](NC(=O)[C@H](CCC(=O)O)NC(=O)[C@H](CCCN=C(N)N)NC(=O)[C@H](CCCN=C(N)N)NC(=O)[C@@H](N)CCCCN)C(=O)N[C@@H](CC(C)C)C(=O)N[C@@H](CO)C(=O)N[C@@H](CCCN=C(N)N)C(=O)N[C@@H](CCCN=C(N)N)C(=O)N1CCC[C@H]1C(=O)N[C@@H](CO)C(=O)N[C@@H](Cc1ccc(O)cc1)C(=O)N[C@@H](CCCN=C(N)N)C(=O)O [CREBtide] (10 µM)
inactive: [1] 0 | [2] 0 | [3] 0 | [4] 0 | [5] 0 | [6] 0 | [7] 0 | [8] 0 | [9] 0 | [10] 0 | [11] 0 | [12] 0 | [13] 0 | [14] 0 | [15] 0 | [16] 0 | [17] 0 | [18] 0 | [19] 0 | [20] 0

N#C/C(=C(/N)Sc1ccc(N)cc1)c1ccccc1C(F)(F)F (10 µM)
inactive: [1] 0 | [2] 0 | [3] 0 | [4] 0 | [5] 0 | [6] 0 | [7] 0 | [8] 0 | [9] 0 | [10] 0 | [11] 0 | [12] 0 | [13] 0 | [14] 0 | [15] 0 | [16] 0 | [17] 0 | [18] 0 | [19] 0 | [20] 0

O=C1NC(=O)/C(=C/c2ccc(-c3ccc(F)cc3O)o2)S1 (10 µM)
inactive: [1] 0 | [2] 0 | [3] 0 | [4] 0 | [5] 0 | [6] 0 | [7] 0 | [8] 0 | [9] 0 | [10] 0 | [11] 0 | [12] 0 | [13] 0 | [14] 0 | [15] 0 | [16] 0 | [17] 0 | [18] 0 | [19] 0 | [20] 0

Cc1ccc(-c2nn(C(C)(C)CNC(=O)c3ccncc3)c3ncnc(N)c23)cc1 (2.5 µM)
inactive: [1] 0 | [2] 0 | [3] 0 | [4] 0 | [5] 0 | [6] 0 | [7] 0 | [8] 0 | [9] 0 | [10] 0 | [11] 0 | [12] 0 | [13] 0 | [14] 0 | [15] 0 | [16] 0 | [17] 0 | [18] 0 | [19] 0 | [20] 0

O=S(=O)(c1cccc2cnccc12)N1CCNCC1 (10 µM)
inactive: [1] 0 | [2] 0 | [3] 0 | [4] 0 | [5] 0 | [6] 0 | [7] 0 | [8] 0 | [9] 0 | [10] 0 | [11] 0 | [12] 0 | [13] 0 | [14] 0 | [15] 0 | [16] 0 | [17] 0 | [18] 0 | [19] 0 | [20] 0

CCCCOc1ccc(CC/C=C2\SC(=O)N(CCN)C2=O)cc1 [K145 (hydrochloride)] (2.5 µM)
inactive: [1] 0 | [2] 0 | [3] 0 | [4] 0 | [5] 0 | [6] 0 | [7] 0 | [8] 0 | [9] 0 | [10] 0 | [11] 0 | [12] 0 | [13] 0 | [14] 0 | [15] 0 | [16] 0 | [17] 0 | [18] 0 | [19] 0 | [20] 0

CC(CCc1ccccn1)(CCc1ccccn1)C(=O)c1ccccc1 (10 µM)
inactive: [1] 0 | [2] 0 | [3] 0 | [4] 0 | [5] 0 | [6] 0 | [7] 0 | [8] 0 | [9] 0 | [10] 0 | [11] 0 | [12] 0 | [13] 0 | [14] 0 | [15] 0 | [16] 0 | [17] 0 | [18] 0 | [19] 0 | [20] 0

No new results follow: 2 of the compounds above.
CC(C)(C)Cn1c(N)nc2ccc(-c3[nH]c(C(C)(C)C)nc3-c3ccc(F)cc3)nc21 [Ralimetinib dimesylate] (2.5 µM)
inactive: [1] 0 | [2] 0 | [3] 0 | [4] 0 | [5] 0 | [6] 0 | [7] 0 | [8] 0 | [9] 0 | [10] 0 | [11] 0 | [12] 0 | [13] 0 | [14] 0 | [15] 0 | [16] 0 | [17] 0 | [18] 0 | [19] 0 | [20] 0

CC[C@H](C)[C@H](NC(=O)[C@H](CCC(=O)O)NC(=O)[C@H](CCCN=C(N)N)NC(=O)[C@H](CCCN=C(N)N)NC(=O)[C@@H](N)CCCCN)C(=O)N[C@@H](CC(C)C)C(=O)N[C@@H](CO)C(=O)N[C@@H](CCCN=C(N)N)C(=O)N[C@@H](CCCN=C(N)N)C(=O)N1CCC[C@H]1C(=O)N[C@@H](CO)C(=O)N[C@@H](Cc1ccc(O)cc1)C(=O)N[C@@H](CCCN=C(N)N)C(=O)O [CREBtide] (10 µM)
inactive: [1] 0 | [2] 0 | [3] 0 | [4] 0 | [5] 0 | [6] 0 | [7] 0 | [8] 0 | [9] 0 | [10] 0 | [11] 0 | [12] 0 | [13] 0 | [14] 0 | [15] 0 | [16] 0 | [17] 0 | [18] 0 | [19] 0 | [20] 0

(next part)

CCOc1ccccc1C=C1C(=O)Nc2ccccc21 (10 µM)
inactive: [1] 0 | [2] 0 | [3] 0 | [4] 0 | [5] 0 | [6] 0 | [7] 0 | [8] 0 | [9] 0 | [10] 0 | [11] 0 | [12] 0 | [13] 0 | [14] 0 | [15] 0 | [16] 0 | [17] 0 | [18] 0 | [19] 0 | [20] 0

CC(=O)Nc1nc(C)c(-c2nc(N3CCCC(O)C3)no2)s1 (stereo not given) (10 µM)
inactive: [1] 0 | [2] 0 | [3] 0 | [4] 0 | [5] 0 | [6] 0 | [7] 0 | [8] 0 | [9] 0 | [10] 0 | [11] 0 | [12] 0 | [13] 0 | [14] 0 | [15] 0 | [16] 0 | [17] 0 | [18] 0 | [19] 0 | [20] 0

CCN(C)C(=O)c1ccc2c(C(=Nc3ccc(CN4CCCCC4)cc3)c3ccccc3)c(O)[nH]c2c1 (2.5 µM)
inactive: [1] 0 | [2] 0 | [3] 0 | [4] 0 | [5] 0 | [6] 0 | [7] 0 | [8] 0 | [9] 0 | [10] 0 | [11] 0 | [12] 0 | [13] 0 | [14] 0 | [15] 0 | [16] 0 | [17] 0 | [18] 0 | [19] 0 | [20] 0

CNC(=O)c1ccc(-c2cnc3cnc(-c4ccccc4)cn23)cc1 (10 µM)
inactive: [1] 0 | [2] 0 | [3] 0 | [4] 0 | [5] 0 | [6] 0 | [7] 0 | [8] 0 | [9] 0 | [10] 0 | [11] 0 | [12] 0 | [13] 0 | [14] 0 | [15] 0 | [16] 0 | [17] 0 | [18] 0 | [19] 0 | [20] 0
